Data taken from patent publication US10273202B2, “Nitroxyl progenitor compounds and methods of use” (The Johns Hopkins University, priority 2004, dated 2019).

Tested on: methemoglobin
Assay: Spectrophotometric detection of HNO by trapping with methemoglobin

SMILES: [Na+].[Na+].[O-][N+]([O-])=NO [AS, Angeli's salt]
- iron-nitrosyl (Fe(II)NO) absorption band between 530 and 600 nm (deaerated methemoglobin 50 μM, 100 μM donor): distinct absorption band due to the iron-nitrosyl (Fe(II)NO) complex is observed
- iron-nitrosyl absorption band in the presence of glutathione (methemoglobin 50 μM, 1 mM glutathione): completely quenched
